US20020160953A1
These are yes or no findings as the source states them, for the method shown. In cells and extracts the contact can be indirect. Some results given as binding are weak or reduced against the parent protein; the word gives no strength.

By UniProt entry, the sequences of proteins in these tests, tags left out. Where a name states a change or a piece, a line headed by the entry shows the natural chain unless it says otherwise. Residues count along the entry.
UniProt Q96T91, residues 24-129: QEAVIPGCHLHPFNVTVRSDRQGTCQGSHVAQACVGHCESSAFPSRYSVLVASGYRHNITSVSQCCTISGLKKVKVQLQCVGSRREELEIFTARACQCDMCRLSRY
UniProt Q86YW7: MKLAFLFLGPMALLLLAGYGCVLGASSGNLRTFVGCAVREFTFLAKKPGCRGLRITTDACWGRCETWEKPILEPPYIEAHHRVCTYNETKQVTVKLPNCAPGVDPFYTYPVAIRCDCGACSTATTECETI

Molecular target: Zsig51 (UniProt Q96T91)
Test: co-immunoprecipitation in both directions (anti-Zsig51 and anti-Zlut1 polyclonals), purified proteins mixed or conditioned medium of co-infected cells, Western blot

binding: binds
Substance: human Zlut1 (mammalian glycoprotein hormone-1) (from UniProt Q86YW7 25-130) (ligand)
